One experiment has as its target mLTBP1-TGFb3 (mouse). Put plainly: ELISA, purified hIgG4 titrated from about 0.002 to 100 nM, readout RLU, panel mLTBP1-TGFb3.
The target in the next experiment is hLTBP1-TGFb3 (human). Put plainly: ELISA, purified hIgG4 titrated from about 0.002 to 100 nM, readout RLU, panel hLTBP1-TGFb3.

Results are given in words; binding and its absence hold for the method and conditions named.

B1: Ab46 hIgG4 (antibody, V domains shown)
VH: EVQLLESGGGLVQPGGSLRLSCAASGFTFADYAMTWVRQAPGKGLEWVSAISGSGAATYFADSVKGRFTISRDNSKNTLYLQMNSLRAEDTAVYYCARVSSGHWDYDYWGQGTLVTVSS
VL: DIQLTQSPSSLSASVGDRVTITCRASQSISSYLNWYQQKPGKAPKLLIYAASGLESGVPSRFSGSGSGTDFTLTISSLQPEDFATYYCQQTYGVPLTFGGGTKVEIK
As to B1, the binding entry with mLTBP1-TGFb3 (mouse) and with hLTBP1-TGFb3 (human) was “no binding (tested: 100 nM)” each time.

The values are drawn from patent US20230057012A1, “TGFB INHIBITORS AND USE THEREOF” (Scholar Rock, Inc., priority 2020, published 2023).
